Measured values reported in PubChem BioAssay (NCATS).
The inconclusive results got no clear call from the source; some entries with a clear call stand among them for comparison. For some assays here: Potencies of inconclusive entries are doubtful fits and often do not repeat. The source made the active and inactive calls. Calls come from the whole dose curve; as a rule, active = well fitted curve in the direction sought with a large enough effect; inconclusive = small, poorly fitted or top-dose-only effect, or another doubt; inactive = no such curve, though single readings can be large; an effect the other way counts as inactive or inconclusive.

How the values were obtained:
[1] = Quantitative High-Throughput drug screen in 47 multiple myeloma cell lines against the NCATS MIPE library collection: Karpas417_ECACC cell viability assay (AID 1918961); conditions: Karpas417 myeloma viability, CellTiter-Glo ATP luminescence, 48 h; viability (% of DMSO): at 45.8 µM (top of the series); note: potency is the fitted concentration of half-maximal effect
Summary of the method: (§1)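 CellTiter-Glo luminescence (ATP) after 48 h compound exposure, 37C/5% CO2; 500 cells/well; MIPE 4.0 approved/investigational drugs pinned in; DMSO = 100%, media only = 0% viability.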

[2] = Quantitative High-Throughput drug screen in 47 multiple myeloma cell lines against the NCATS MIPE library collection: KHM11_PLB cell viability assay (AID 1918962); conditions: KHM11 myeloma cell viability, CellTiter-Glo ATP luminescence, 48 h; viability, % of DMSO control: at 45.8 µM (top of the series); note: nearly all actives have a fitted effect of over 35% in size; note: potency is the fitted concentration of half-maximal effect
Summary of the method: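 Steps: seed 500 cells per well; pin-transfer MIPE 4.0 library; incubate 48 h at 37C, 5% CO2, humidified; add CellTiter-Glo, 5 min room temperature; read luminescence.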

[3] = Quantitative High-Throughput drug screen in 47 multiple myeloma cell lines against the NCATS MIPE library collection: JIM1_ECACC cell viability assay (AID 1918964; note: potency is the fitted concentration of half-maximal effect); conditions: JIM1 myeloma viability, CellTiter-Glo ATP luminescence, 48 h; viability (% of DMSO): at 45.8 µM (top of the series)
Summary of the method: (§2)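 Inhibition of cell viability is measured here. Each line was plated at 500 cells per well, treated with MIPE 4.0 drugs, kept 48 hours at 37C, then assayed for ATP content by CellTiter-Glo luminescence.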

[4] = Quantitative High-Throughput drug screen in 47 multiple myeloma cell lines against the NCATS MIPE library collection: INA6_PLB cell viability assay (AID 1918965; note: nearly all actives have a fitted effect of over 55% in size; note: potency is the fitted concentration of half-maximal effect); conditions: INA6 myeloma viability, CellTiter-Glo ATP luminescence, 48 h; viability (% of control): at 45.8 µM (top of the series)
Summary of the method: as §1

[5] = Quantitative High-Throughput drug screen in 47 multiple myeloma cell lines against the NCATS MIPE library collection: JJN3_DSMZ cell viability assay (AID 1918966; note: potency is the fitted concentration of half-maximal effect; nearly all actives have a fitted effect of over 50% in size)
Summary of the method: as §2

[6] = Quantitative High-Throughput drug screen in 47 multiple myeloma cell lines against the NCATS MIPE library collection: KMS27_JCRB cell viability assay (AID 1918970); conditions: KMS27 myeloma cells, CellTiter-Glo ATP viability, 48 h; viability (% of DMSO): at 45.8 µM (top of the series); note: nearly all actives have a fitted effect of over 30% in size
Summary of the method: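 KMS27_JCRB myeloma cells, 500 per well, exposed 48 h at 37 C, 5% CO2 to MIPE 4.0 compounds. Viability from ATP by CellTiter-Glo luminescence, normalized to DMSO (100%) and medium-only (0%) wells.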

[7] = Quantitative High-Throughput drug screen in 47 multiple myeloma cell lines against the NCATS MIPE library collection: KMS12BM_JCRB cell viability assay (AID 1918971); note: potency is the fitted concentration of half-maximal effect; nearly all actives have a fitted effect of over 35% in size
Summary of the method: (§3)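 Viability readout: CellTiter-Glo luminescence following 5 min room-temperature incubation with reagent. Prior exposure: 48 h, 37C, humidified 5% CO2, 500 cells per well.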

[8] = Quantitative High-Throughput drug screen in 47 multiple myeloma cell lines against the NCATS MIPE library collection: KMS20_JCRB cell viability assay (AID 1918973); conditions: CellTiter-Glo ATP, 48 h; viability (% of DMSO): at 45.8 µM (top of the series); note: nearly all actives have a fitted effect of over 45% in size; note: potency is the fitted concentration of half-maximal effect
Summary of the method: as §2

[9] = Quantitative High-Throughput drug screen in 47 multiple myeloma cell lines against the NCATS MIPE library collection: KMS21BM_JCRB cell viability assay (AID 1918974); conditions: ATP luminescence, 48 h; viability: at 45.8 µM (top of the series); note: potency is the fitted concentration of half-maximal effect
Summary of the method: as §2

[10] = Quantitative High-Throughput drug screen in 47 multiple myeloma cell lines against the NCATS MIPE library collection: KMS26_JCRB cell viability assay (AID 1918975); conditions: KMS26 myeloma cells viability, CellTiter-Glo ATP, 48 h; viability (% of DMSO): at 45.8 µM (top of the series); note: nearly all actives have a fitted effect of over 45% in size
Summary of the method: as §3

[11] = Quantitative High-Throughput drug screen in 47 multiple myeloma cell lines against the NCATS MIPE library collection: MOLP8_DSMZ cell viability assay (AID 1918977); note: nearly all actives have a fitted effect of over 45% in size; note: potency is the fitted concentration of half-maximal effect
Summary of the method: (§4)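 500 cells/well; MIPE 4.0 drugs pin-transferred; 48 h, 37C, 5% CO2. CellTiter-Glo, 5 min RT, luminescence. Controls: DMSO 100%, media 0%.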

[12] = Quantitative High-Throughput drug screen in 47 multiple myeloma cell lines against the NCATS MIPE library collection: MM1S_ATCC cell viability assay (AID 1918980); note: nearly all actives have a fitted effect of over 45% in size
Summary of the method: as §4

[13] = Quantitative High-Throughput drug screen in 47 multiple myeloma cell lines against the NCATS MIPE library collection: MMM1_PLB cell viability assay (AID 1918976); note: potency is the fitted concentration of half-maximal effect; nearly all actives have a fitted effect of over 35% in size
Summary of the method: as §4

[14] = Quantitative High-Throughput drug screen in 47 multiple myeloma cell lines against the NCATS MIPE library collection: NCIH929_DSMZ cell viability assay (AID 1918978); conditions: NCI-H929 myeloma viability, CellTiter-Glo ATP, 48 h; viability, % of control: at 45.8 µM (top of the series); note: nearly all actives have a fitted effect of over 35% in size; note: potency is the fitted concentration of half-maximal effect
Summary of the method: as §4

[15] = Quantitative High-Throughput drug screen in 47 multiple myeloma cell lines against the NCATS MIPE library collection: OCIMY1_PLB cell viability assay (AID 1918979); note: nearly all actives have a fitted effect of over 35% in size; note: potency is the fitted concentration of half-maximal effect
Summary of the method: as §4

[16] = Quantitative High-Throughput drug screen in 47 multiple myeloma cell lines against the NCATS MIPE library collection: MM1R_ATCC cell viability assay (AID 1918981); note: nearly all actives have a fitted effect of over 35% in size; note: potency is the fitted concentration of half-maximal effect
Summary of the method: as §4

[17] = Quantitative High-Throughput drug screen in 47 multiple myeloma cell lines against the NCATS MIPE library collection: H1112_PLB cell viability assay (AID 1918967; note: nearly all actives have a fitted effect of over 30% in size)
Summary of the method: as §2

[18] = Quantitative High-Throughput drug screen in 47 multiple myeloma cell lines against the NCATS MIPE library collection: KMS12PE_JCRB cell viability assay (AID 1918972); conditions: KMS12PE myeloma viability, CellTiter-Glo ATP, 48 h; viability: at 45.8 µM (top of the series); note: nearly all actives have a fitted effect of over 30% in size
Summary of the method: as §1

[19] = Quantitative High-Throughput drug screen in 47 multiple myeloma cell lines against the NCATS MIPE library collection: Karpas25_ECACC cell viability assay (AID 1918968)
Summary of the method: as §2

Structure (SMILES) | Potency [1] | Potency [2] | Potency [3] | Potency [4] | Potency [5] | Potency [6] | Potency [7] | Potency [8] | Potency [9] | Potency [10] | Potency [11] | Potency [12] | Potency [13] | Potency [14] | Potency [15] | Potency [16] | viability (% of DMSO) [1] | Potency [17] | Potency [18] | Potency [19]
CCC1(c2ccc(N)cc2)CCC(=O)NC1=O (stereo not drawn) | inconclusive: 14800 nM [rising, partial curve, poor fit] | inconclusive: 2.1 nM [cytotoxic, full curve, poor fit] | inconclusive: 11.8 nM [cytotoxic, full curve, poor fit] | inactive | inconclusive: 33200 nM [cytotoxic, partial curve, poor fit] | inactive | inconclusive: 46.9 nM [cytotoxic, full curve, poor fit] | inconclusive: 5260 nM [rising, partial curve, poor fit] | inconclusive: 33200 nM [rising, partial curve, poor fit] | inactive | inactive | inactive | – | – | – | – | – | – | – | –
CC(=CCCC1=CCC(C2=CC(=O)OC2O)OC1O)CCC1=C(C)CCCC1(C)C (stereo not drawn) | inconclusive: 26400 nM [rising, partial curve, poor fit] | inconclusive: 20900 nM [cytotoxic, partial curve, poor fit] | inactive | inactive | inconclusive: 52.6 nM [cytotoxic, full curve, poor fit] | inactive | inconclusive: 935 nM [cytotoxic, partial curve, poor fit] | inconclusive: 37200 nM [cytotoxic, single point] | inconclusive: 1870 nM [rising, partial curve, poor fit] | – | inactive | – | inconclusive: 7430 nM [cytotoxic, partial curve, poor fit] | inconclusive: 18700 nM [cytotoxic, partial curve, poor fit] | inactive | inactive | – | – | – | –
Oc1ccc2c3c1O[C@H]1c4[nH]c5c(c4C[C@@]4(O)[C@@H](C2)N(CC2CC2)CC[C@]314)C[C@@]1(O)[C@H]2Cc3ccc(O)c4c3[C@@]1(CCN2CC1CC1)[C@H]5O4 | inconclusive: 1.7 nM [cytotoxic, full curve, poor fit] | inactive | inactive | inactive | inconclusive: 20.9 nM [rising, full curve, poor fit] | inactive | inconclusive: 29.6 nM [rising, full curve, poor fit] | inconclusive: 52.6 nM [rising, full curve, poor fit] | – | inactive | inactive | inactive | inconclusive: 2.3 nM [rising, full curve, poor fit] | – | inconclusive: 11.8 nM [rising, full curve, poor fit] | – | – | – | – | –
CSCC[C@@H](NC(=O)[C@@H](Cc1ccccc1)NC(=O)CNC(=O)CNC(=O)[C@@H](N)Cc1ccc(O)cc1)C(=O)O | – | inactive | inconclusive: 5.3 nM [rising, full curve, poor fit] | inactive | inconclusive: 7.4 nM [rising, full curve, poor fit] | – | inconclusive: 132 nM [rising, full curve, poor fit] | inactive | – | – | inconclusive: 833 nM [rising, partial curve, poor fit] | inactive | inconclusive: 10.5 nM [rising, full curve] | inactive | inactive | inconclusive: 66.2 nM [rising, partial curve, poor fit] | active: 132% | inactive | inactive | –
O=C(O)C(=O)c1cn(Cc2ccccc2)c2ccc(-c3ccc(OC(F)(F)F)cc3)cc12 | inconclusive: 74.3 nM [cytotoxic, full curve, poor fit] | inconclusive: 13200 nM [cytotoxic, partial curve, poor fit] | inactive | inconclusive: 20900 nM [cytotoxic, single point] | inconclusive: 5900 nM [cytotoxic, partial curve, poor fit] | – | inconclusive: 4690 nM [cytotoxic, full curve, poor fit] | inconclusive: 23500 nM [cytotoxic, single point] | inconclusive: 23500 nM [rising, partial curve] | inactive | inconclusive: 13200 nM [cytotoxic, partial curve, poor fit] | – | inconclusive: 148 nM [cytotoxic, full curve, poor fit] | inconclusive: 29600 nM [cytotoxic, single point] | – | inactive | – | – | – | active: 16600 nM
